{
  "source": "patent US20040265381A1",
  "about": "“Anti-asthmatic drug (asmakure) from indigenous herbs to cure the disease asthma” (priority 2001, published 2004)",
  "origin": "cited, not measured here",
  "conditions": "following oral administration",
  "data": [
    {"smiles": "CCN(CC)CC#CCOC(=O)C(O)(c1ccccc1)C1CCCCC1.Cl", "note": "(stereo not drawn) [Oxybutynin, α-cyclohexyl-α-hydroxybenzeneacetic acid 4-(diethylamino)-2-butynyl ester hydrochloride]", "values": [
      {"measurement": "duration of action", "result": "three to six hours"}
    ]}
  ]
}
